Values quoted from earlier work, collected in US20050004102A1, “Monohydroxycarbamazepine for use in the preparation of a medicament for the treatment of affective and attention disorder and neuropathic pain” (priority 2001, published 2005).
At least one structure is not confirmed: it was looked up by name or label, or the drawing left a doubt.

Test system: GABA turnover
Conditions: known from the literature; cited from earlier work

## [Li] [lithium]
  GABA turnover rate: inhibit the GABA turnover rate

## CCCC(CCC)C(=O)O [valproate]
  GABA turnover rate: inhibit the GABA turnover rate
